Measured data: PubChem BioAssay AID1224831 (NIAID, 2016)
The whole screen tested about 3,500 reagents; shown is a part drawn at random. 731 of all reagents (21%) count as active. 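Active means either lowered or raised reporter signal; the gene-median score did not drive the per-siRNA calls.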 Unmarked entries are inactive. The numbers tell different reagents against one gene apart. Further read-outs or replicates are left out here.

Test: 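Retesting screen hits on the TLR4-driven TNF response with six separate siRNAs each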 (follow-up of hits)
Cells: human THP-1 B5 monocytic leukaemia cells carrying a TNF promoter luciferase reporter, made macrophage-like with PMA
Knock-down reagent: single siRNA against human genes, 50 nM
Timing: about 68 h of knock-down, then 4 h LPS
Challenge: LPS (Salmonella minnesota, TLR-grade) at 10 ng/ml for 4 h; PMA 5 ng/ml present during knock-down
Read-out: 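Firefly to renilla luciferase ratio of a TNF promoter reporter after 4 h LPS, scaled to plate median, turned into robust z-score, averaged over replicates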
Scale: TNF reporter z-score: higher = stronger LPS-induced TNF reporter signal
Rule for the call: 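Active when the replicate mean z-score is about -1 or lower, or about 1.5 or higher; lowered and raised TNF reporter signal both count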
Meaning of the calls: active = changed TNF reporter (either direction); inactive = little change

TNF reporter z-score, replicate mean, by gene symbol and reagent
PXN (paxillin): #1 0.41; #2 -0.14; #3 0.22; #4 2.67 (active); #5 -0.33; #6 -1.42 (active)
SAC3D1 (SAC3 domain containing 1): #1 1.33; #2 -0.03; #3 0.73; #4 0.28; #5 0.65; #6 0.75
TIPARP (TCDD inducible poly(ADP-ribose) polymerase): #1 -2.07 (active); #2 -2.94 (active); #3 -2.12 (active); #4 -1.78 (active); #5 -1.46 (active); #6 -0.82
SYT1 (synaptotagmin 1): #1 -0.84; #2 0.21; #3 0.28; #4 -0.25; #5 0.96; #6 0.54
FAM221B (family with sequence similarity 221 member B): #1 -0.8; #2 -1.14 (active); #3 -0.66; #4 -0.55; #5 -0.72; #6 -1.43 (active)
KCMF1 (potassium channel modulatory factor 1): #1 0; #2 1.69 (active); #3 0.6; #4 -0.05; #5 -0.09; #6 -0.13
FAM241A (family with sequence similarity 241 member A): #1 0.16; #2 -0.68; #3 0.2; #4 0.32; #5 -0.06; #6 -0.38
PACSIN1 (protein kinase C and casein kinase substrate in neurons 1): #1 -0.97; #2 -0.51; #3 -0.12; #4 -0.05; #5 0.24; #6 0.37
ENTREP3 (endosomal transmembrane epsin interactor 3): #1 -0.66; #2 -2.09 (active); #3 -0.02; #4 -0.67; #5 1.09; #6 1.19
LECT2 (leukocyte cell derived chemotaxin 2): #1 -0.07; #2 -0.62; #3 1.18; #4 0.96; #5 -1.18 (active); #6 0.27
PLPP1 (phospholipid phosphatase 1): #1 0.43; #2 -0.19; #3 0.52; #4 -0.5; #5 0.03; #6 0.39
PLBD1 (phospholipase B domain containing 1): #1 0.2; #2 1.14; #3 0.19; #4 -0.48; #5 0.31; #6 0
TWIST1 (twist family bHLH transcription factor 1): #1 -0.85; #2 1.72 (active); #3 0.21; #4 3.59 (active); #5 0.54; #6 -0.09
FAM47C (family with sequence similarity 47 member C): #1 2.65 (active); #2 0.42; #3 0.67; #4 2.78 (active); #5 0.37; #6 -0.02
